Measured values taken from PubChem BioAssay AID540276 (National Center for Advancing Translational Sciences (NCATS), 2011).
Screen size: about 300,000 compounds; about 5,400 (1.8%) were called active. Inconclusive means that the source gave no clear call. Such entries were picked first, then a sample of the others. Calls follow the shape of the full dose curve; tested in HEK293 cells. Where the call is inconclusive, the potency comes from a doubtful curve fit.

Test: qHTS for inhibitors of binding or entry into cells for Marburg Virus
Details: Marburg virus pseudotyped entry inhibition, cell reporter; series mostly up to 37.8 µM
Potency is read from the fitted curve at half-maximal effect.

SMILES | Potency
CCCCCC(=O)Nc1cccc(S(=O)(=O)NC2=NCCC2)c1 | inconclusive: 2 µM [activator, partial curve, poor fit]
O=C(CSc1nc2cc(Cl)ccc2o1)NCCc1ccccc1 | inactive
O=C(CSc1nnc2ccccn12)Nc1ccccc1Cl | inconclusive: 14.1 µM [activator, single point]
C=CCN(c1ccccc1)S(=O)(=O)c1cc(C(=O)NC2=NCCS2)ccc1Cl | inactive
CN(C)C(=O)CCc1nc(-c2ccc(C(C)(C)C)cc2)no1 | inconclusive: 22.4 µM [inhibitor, single point]
COc1ccc(-n2cc(-c3ccc4c(c3)OCO4)n(CC(=O)Nc3cc(Cl)ccc3C)c2=O)cc1 | inconclusive: 3.98 µM [inhibitor, single point]
CO/N=C(\N)c1nonc1N | inconclusive: 12.6 µM [activator, partial curve, poor fit]
COc1cc2c(cc1OC)CN(C(=O)c1ccc(S(=O)(=O)N(C)c3ccccc3)cc1)CC2 | inconclusive: 14.1 µM [inhibitor, partial curve, poor fit]
Cc1ccc(-c2nc3c(c(=O)c4ccccc4n3C)c(=O)n2Cc2ccco2)cc1 | inconclusive: 8.91 µM [inhibitor, partial curve, poor fit]
Cc1cc([N+](=O)[O-])ccc1NC(=O)C[n+]1ccc(N(C)C)cc1 | inactive
CCCCCn1cnc2c(sc3nc4c(cc32)CSC(C)(C)C4)c1=O | inconclusive: 0.631 µM [activator, partial curve, poor fit]
CN1CCN(c2ccc(NC(=O)c3ccc(-c4ccc(Br)cc4)o3)cc2)CC1 | inconclusive: 14.1 µM [inhibitor, partial curve, poor fit]
CCOc1ccc(N2C(=O)/C(=C\c3cccs3)C(=O)NC2=S)cc1 | inactive
O=C(CCN1C(=O)c2ccccc2C1=O)NC(=S)Nc1cccc(Cl)c1 | inconclusive: 25.1 µM [inhibitor, single point]
O=C(CSc1ccc(Cl)cc1)Nc1cccc(-c2nnc(-c3ccco3)o2)c1 | inconclusive: 1.41 µM [activator, partial curve, poor fit]
CN(C)CCCN(C(=O)c1ccc2c(c1)OCCO2)c1nc2cc3c(cc2s1)OCO3 | inconclusive: 35.5 µM [inhibitor, single point]
COC(=O)c1ccccc1NC(=O)NCCc1ccccc1OC | inconclusive: 7.08 µM [activator, full curve, poor fit]
COC(=O)c1ccc(C2CC(=O)Nc3cc(OC)c(OC)c(OC)c32)cc1 (stereo not given) | inactive
NC[C@H](O)c1cc(O)c(O)cc1F | inactive
C=CCn1c(-c2cccs2)nc2nc3ccccc3nc21 | inactive
Cc1ccc(C(=O)Nc2ccc(S(=O)(=O)N3CCOCC3)cc2)cc1 | inconclusive: 5.62 µM [activator, single point]
O=[N+]([O-])c1ccc(N2CCOCC2)cc1 | inconclusive: 3.55 µM [inhibitor, single point]
CC(CCc1ccccc1)NC(=O)COC(=O)c1ccc([N+](=O)[O-])cc1 (stereo not given) | inactive

Shown in markdown: twelve of the compounds above.

| SMILES | Potency |
| --- | --- |
| O=C(CSc1nc2cc(Cl)ccc2o1)NCCc1ccccc1 | inactive |
| O=C(CSc1nnc2ccccn12)Nc1ccccc1Cl | inconclusive: 14.1 µM [activator, single point] |
| C=CCN(c1ccccc1)S(=O)(=O)c1cc(C(=O)NC2=NCCS2)ccc1Cl | inactive |
| CN(C)C(=O)CCc1nc(-c2ccc(C(C)(C)C)cc2)no1 | inconclusive: 22.4 µM [inhibitor, single point] |
| CO/N=C(\N)c1nonc1N | inconclusive: 12.6 µM [activator, partial curve, poor fit] |
| Cc1ccc(-c2nc3c(c(=O)c4ccccc4n3C)c(=O)n2Cc2ccco2)cc1 | inconclusive: 8.91 µM [inhibitor, partial curve, poor fit] |
| Cc1cc([N+](=O)[O-])ccc1NC(=O)C[n+]1ccc(N(C)C)cc1 | inactive |
| CCCCCn1cnc2c(sc3nc4c(cc32)CSC(C)(C)C4)c1=O | inconclusive: 0.631 µM [activator, partial curve, poor fit] |
| CCOc1ccc(N2C(=O)/C(=C\c3cccs3)C(=O)NC2=S)cc1 | inactive |
| O=C(CSc1ccc(Cl)cc1)Nc1cccc(-c2nnc(-c3ccco3)o2)c1 | inconclusive: 1.41 µM [activator, partial curve, poor fit] |
| COC(=O)c1ccc(C2CC(=O)Nc3cc(OC)c(OC)c(OC)c32)cc1 (stereo not given) | inactive |
| CC(CCc1ccccc1)NC(=O)COC(=O)c1ccc([N+](=O)[O-])cc1 (stereo not given) | inactive |

Next part:

SMILES | Potency
CSc1cccc(NC(=S)N(Cc2ccc(C)cc2)Cc2cccnc2)c1 | inconclusive: 35.5 µM [inhibitor, single point]
NCCNS(=O)(=O)c1cccc2cnccc12 | inconclusive: 35.5 µM [inhibitor, single point]
Cc1cc(/C(N)=N/OC(=O)c2ccccc2Cl)no1 | inconclusive: 1.78 µM [inhibitor, full curve, poor fit]
Nc1cc(-c2ccc(Cl)cc2)nn1-c1ccccc1 | inconclusive: 4.47 µM [activator, partial curve]
COc1ccc(N=C2c3ccccc3-c3ccc([N+](=O)[O-])cc32)cc1 | inconclusive: 10 µM [inhibitor, partial curve]
CCC(=O)NC(c1ccc(C)cc1)c1ccc2cccnc2c1O (stereo not given) | active: 3.16 µM
CC(C)=CC(=O)OCC(=O)Nc1cc(C)cc(C)c1 | inactive
CN1/C(=C\C(=O)C(F)F)C(C)(C)c2ccccc21 | inactive
CCN(CCCNC(=O)c1cc2c(=O)n(CC)c3ccccc3c2s1)Cc1ccccc1 | active: 4.47 µM
CN(C(=O)CSc1nnc(C2CC2)n1C1CC1)C1(C#N)CCCCC1 | inconclusive: 0.0891 µM [inhibitor, full curve, poor fit]
O=C(OCc1cn([C@H]2C[C@H](c3ccc(Cl)cc3)N(Cc3cccs3)C[C@H]2O)nn1)c1ccccc1 | inconclusive: 8.87 µM [inhibitor, partial curve]
COc1cccc(-c2nc3c(C#N)c[nH]n3c2NC2CCCC2)c1OC | inactive
N#Cc1ccsc1NC(=O)c1cccc(-n2cnnn2)c1 | inactive
CN(NC(=O)c1ccccc1F)c1nc(C(F)(F)F)nc2ccccc12 | inconclusive: 2.82 µM [inhibitor, partial curve, poor fit]
Cc1ccc2[nH]c(=O)c(CN(Cc3ccccc3)C(=S)NCCCN(C)C)cc2c1 | inconclusive: 35.5 µM [inhibitor, partial curve, poor fit]
COc1cccc(-c2nn(-c3ccccc3)cc2C(=O)n2nnc3ccccc32)c1 | inactive
CCC(C)N(C(=O)COC(=O)c1nc2nc(C)cc(C)n2n1)C1CCS(=O)(=O)C1 (stereo not given) | inconclusive: 0.631 µM [activator, full curve, poor fit]
COc1ccc(Cl)cc1NC(=O)CN(C)C(=O)Cc1n[nH]c(=O)c2ccccc12 | inconclusive: 0.282 µM [inhibitor, full curve, poor fit]
COc1cccc(NC(=O)c2ccc(CN3CCN(c4ccccc4)CC3)cc2)c1 | active: 5.8 µM
Cc1nn(Cc2ccccc2)c2c1C(c1cccc(Cl)c1)C(C#N)=C(N)O2 (stereo not given) | inconclusive: 0.794 µM [inhibitor, single point]
CCCCNC(=O)COC(=O)c1ccc(NC(C)=O)cc1 | inactive
CCc1ccc(-c2cc(C)no2)cc1S(=O)(=O)NCc1ccc(OC)c(OC)c1 | inconclusive: 10 µM [inhibitor, partial curve, poor fit]
